Assay results as given in publication PMC9418327.

Chains of the proteins cited; added tags and fusions are not shown. Chains listed by the source or under a name are the forms on record and can include a tag or linker.
Dfd (Deformed) + Exd (Extradenticle) + Hth (Homothorax), one chain, as listed by the source, chain 3 of 3: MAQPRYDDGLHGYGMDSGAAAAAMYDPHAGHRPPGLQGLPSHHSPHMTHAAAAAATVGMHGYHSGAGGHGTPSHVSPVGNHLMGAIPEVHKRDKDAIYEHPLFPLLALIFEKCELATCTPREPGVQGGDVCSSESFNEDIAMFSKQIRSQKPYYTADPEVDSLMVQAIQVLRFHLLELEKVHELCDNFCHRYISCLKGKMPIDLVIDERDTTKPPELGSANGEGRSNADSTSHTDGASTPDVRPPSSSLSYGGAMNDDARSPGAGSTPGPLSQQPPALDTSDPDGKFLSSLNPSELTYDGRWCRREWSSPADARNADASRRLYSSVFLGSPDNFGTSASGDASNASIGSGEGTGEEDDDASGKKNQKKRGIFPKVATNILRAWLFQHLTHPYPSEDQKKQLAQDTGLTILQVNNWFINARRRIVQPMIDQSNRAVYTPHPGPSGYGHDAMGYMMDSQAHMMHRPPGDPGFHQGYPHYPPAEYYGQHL
Dfd (Deformed) + Exd (Extradenticle) + Hth (Homothorax), one chain, as listed by the source, chain 2 of 3: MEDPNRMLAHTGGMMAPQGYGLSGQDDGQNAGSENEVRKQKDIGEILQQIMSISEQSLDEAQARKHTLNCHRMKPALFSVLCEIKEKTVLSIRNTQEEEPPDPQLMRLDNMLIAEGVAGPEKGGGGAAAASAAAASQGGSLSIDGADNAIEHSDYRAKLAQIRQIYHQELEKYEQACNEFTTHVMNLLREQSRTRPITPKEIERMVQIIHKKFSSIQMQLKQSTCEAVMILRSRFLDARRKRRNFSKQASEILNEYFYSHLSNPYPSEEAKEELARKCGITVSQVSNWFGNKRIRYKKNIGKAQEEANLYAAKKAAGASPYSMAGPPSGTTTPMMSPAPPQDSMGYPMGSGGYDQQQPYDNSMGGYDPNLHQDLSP
Dfd (Deformed) + Exd (Extradenticle) + Hth (Homothorax), one chain, as listed by the source, chain 1 of 3: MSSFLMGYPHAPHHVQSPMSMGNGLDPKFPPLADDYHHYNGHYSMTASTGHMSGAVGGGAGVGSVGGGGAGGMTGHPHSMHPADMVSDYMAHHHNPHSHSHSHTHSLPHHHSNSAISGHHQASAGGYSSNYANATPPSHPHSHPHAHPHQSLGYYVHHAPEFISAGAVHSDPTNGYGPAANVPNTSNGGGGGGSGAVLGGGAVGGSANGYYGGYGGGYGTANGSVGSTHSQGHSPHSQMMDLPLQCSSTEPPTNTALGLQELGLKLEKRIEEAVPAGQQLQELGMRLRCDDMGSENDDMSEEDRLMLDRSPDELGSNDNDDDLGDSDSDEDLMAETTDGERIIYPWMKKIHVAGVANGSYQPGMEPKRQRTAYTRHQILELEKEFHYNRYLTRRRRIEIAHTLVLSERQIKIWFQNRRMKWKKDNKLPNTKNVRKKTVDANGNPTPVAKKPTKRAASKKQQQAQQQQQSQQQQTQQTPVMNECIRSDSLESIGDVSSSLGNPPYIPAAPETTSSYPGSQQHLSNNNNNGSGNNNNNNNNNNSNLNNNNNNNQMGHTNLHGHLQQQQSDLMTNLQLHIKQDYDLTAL

Tested on: Dfd (Deformed) + Exd (Extradenticle) + Hth (Homothorax)
Assay: EMSA
Conditions: 20 mM HEPES pH 7.9, 1.4 mM MgCl2, 1 mM ZnSO4, 40 mM KCl, 0.1 mM EGTA, 5% glycerol, 10 mM DTT, 0.1% NP40, 200 ng poly(dI-dC), 3 ug BSA, recombinant protein, protein details: GST (pGEX-6P),His-myc,His-Flag, label: 5'-Cy5
[1] = sites act redundantly, 2 pmol Cy5 dsDNA in 30 ul
[2] = both sites required for full binding, 2 pmol Cy5 dsDNA in 30 ul

Sequence | binding result [1] | binding result [2] | other results
AAAAATGAATTAGTGGAAATATAAATATATGATT (double strand) [oligo-C-wt (sites 5-8)] | – | – | binding result (less efficient than oligo A, 2 pmol Cy5 dsDNA in 30 ul): binds more weakly
GACCGCAGAACCAAACAAATTATTAAAAATGAAT (double strand) [oligo-B-wt (sites 2, 3/4)] | – | – | binding result (2 pmol Cy5 dsDNA in …): binds
GACCGCAGAACCAAACAAATTATTGCCAGTGAAT (double strand) [oligo-B-2-mt] | binds | – | –
GACCGCAGAACCAAGCCGCCTATTAAAAATGAAT (double strand) [oligo-B-1-mt] | binds | – | –
TATAAAAGCCATTAAATAGCCGCCTATTCTCGAT (double strand) [oligo-D-2-mt (site 10 mutated)] | – | binds more weakly | –
TATAAAAGGCGGCAAATACTAATCTATTCTCGAT (double strand) [oligo-D-1-mt (D-9mut-10wt)] | – | binds more weakly | –

The exact form of at least one protein or probe is not confirmed. The comparison behind a weaker result is the experiment's own reference, which may not be listed here. At least one verdict rests on a figure or table, not on a statement of the authors.
